Measured values reported in US20160031955A1 (INSERM INSTITUT NATIONAL DE LA SANT ET DE LA RECHERCHE M …, published 2016).
These are yes or no findings as the source states them, for the method shown. In cells and extracts the contact can be indirect. Some entries that bind do so weakly or less than the wild type. For part of these data: Tags and fused reporters may be left off the sequences shown.

Amino acid sequences for entries named in this document (tags omitted). Residues count along the entry.
UniProt O95831, residues 55-613: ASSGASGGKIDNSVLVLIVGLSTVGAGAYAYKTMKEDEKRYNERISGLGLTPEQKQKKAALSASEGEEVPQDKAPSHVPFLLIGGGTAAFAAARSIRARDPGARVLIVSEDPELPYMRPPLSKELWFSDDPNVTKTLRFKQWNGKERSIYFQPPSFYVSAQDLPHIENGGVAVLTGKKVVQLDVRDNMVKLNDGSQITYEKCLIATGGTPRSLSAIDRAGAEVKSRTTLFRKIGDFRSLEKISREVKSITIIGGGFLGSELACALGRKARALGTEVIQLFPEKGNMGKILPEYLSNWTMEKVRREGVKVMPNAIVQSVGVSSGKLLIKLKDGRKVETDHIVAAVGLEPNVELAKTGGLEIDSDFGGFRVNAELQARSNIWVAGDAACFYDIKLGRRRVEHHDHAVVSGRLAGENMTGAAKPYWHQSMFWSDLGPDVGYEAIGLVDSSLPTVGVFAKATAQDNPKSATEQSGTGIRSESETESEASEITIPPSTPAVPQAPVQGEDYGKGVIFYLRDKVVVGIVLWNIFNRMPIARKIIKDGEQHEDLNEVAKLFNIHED

Experiments:
[1] = target: endogenous AIF (apoptosis inducing factor) contained in human cell lysates (human) (UniProt O95831); assay: GST pull-down of AIF from U2OS lysate
[2] = target: endogenous AIF (apoptosis inducing factor) contained in human cell lysates (human) (UniProt O95831); assay: co-immunoprecipitation from human cancer cell lysates
[3] = target: GST-tagged AIF (GST-AIF) immobilized on glutathione-Sepharose beads (human) [GST: P08515]; assay: GST pull-down of MIA40 from U2OS lysate on GST-tagged AIF
[4] = target: GST-tagged AIF (GST-AIF) immobilized on glutathione-Sepharose beads (human) [GST: P08515]; assay: GST pull-down, GST-AIF on beads preincubated with pyridine nucleotides

Binder | binding [1] | binding [2] | further results
GST-tagged truncation mutant of MIA40 (1-57) (protein, not shown: a dimerising Fc or GST; small tags and cut ends) MSYCRQEGKDRIIFVTKEDHETPSSAELVADDPNDPYEEHGLILPNGNINWNCPCLG | binds | – | –
endogenous human MIA40 isoform 1 (CHCHD4.1) (protein) MSYCRQEGKDRIIFVTKEDHETPSSAELVADDPNDPYEEHGLILPNGNINWNCPCLGGMASGPCGEQFKSAFSCFHYSTEEIKGSDCVDQFRAMQECMQKYPDLYPQEDEDEEEEREKKPAEQAEETAPIEATATKEEEGSS | – | binds | binding [3]: binds
GST-tagged full length MIA40 (wt) (protein, not shown: a dimerising Fc or GST) MSYCRQEGKDRIIFVTKEDHETPSSAELVADDPNDPYEEHGLILPNGNINWNCPCLGGMASGPCGEQFKSAFSCFHYSTEEIKGSDCVDQFRAMQECMQKYPDLYPQEDEDEEEEREKKPAEQAEETAPIEATATKEEEGSS | binds | – | –
recombinant His-tagged full length MIA40 (protein, not shown: small tags and cut ends) MSYCRQEGKDRIIFVTKEDHETPSSAELVADDPNDPYEEHGLILPNGNINWNCPCLGGMASGPCGEQFKSAFSCFHYSTEEIKGSDCVDQFRAMQECMQKYPDLYPQEDEDEEEEREKKPAEQAEETAPIEATATKEEEGSS | – | – | binding [4]: binds
recombinant HA-tagged MIA40 isoform 1 (wt) (protein, not shown: small tags and cut ends) MSYCRQEGKDRIIFVTKEDHETPSSAELVADDPNDPYEEHGLILPNGNINWNCPCLGGMASGPCGEQFKSAFSCFHYSTEEIKGSDCVDQFRAMQECMQKYPDLYPQEDEDEEEEREKKPAEQAEETAPIEATATKEEEGSS | – | binds | –
